Results deposited as PubChem BioAssay AID1224830 (NIAID, 2016)

Screen: 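Genes whose knock-down alters the TNF-alpha reporter response to LPS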 (primary screen)
Cells: human THP-1 monocytic leukaemia cells, TNF dual-luciferase reporter clone, PMA-differentiated to macrophage-like cells
Reagents: siRNA pool against human genes, 50 nM
Timing: LPS for 4 h, given about 3 days after siRNA transfection
Conditions: bacterial LPS (TLR4 ligand), 10 ng/ml
Detection: 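TNF firefly reporter luminescence divided by renilla, normalised to the plate median, then turned into a robust z-score for each replicate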
Direction: TNF reporter robust z-score: higher = stronger TNF reporter response to LPS
Rule for the call: 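Each well counts as active if its z-score is over 2.8 or under -1.5; controls are left without a call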
The deposit covers about 18,000 reagents; this is an unselected part. Over the whole deposit, about 2,900 (16%) got an active call. 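Calls are made per well; low scores hint the gene aids the LPS response, high scores that it dampens it.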 Unmarked entries are inactive. Repeated entries: four replicate wells of each siRNA pool.

The first 3 records, to show the layout:
{"gene":"TYK2","TNF reporter robust z-score":0.48}
{"gene":"TYK2","TNF reporter robust z-score":1.75}
{"gene":"TYK2","TNF reporter robust z-score":-0.08}

Main list, repeating the preview:
{"gene":"TYK2","TNF reporter robust z-score":0.48}
{"gene":"TYK2","TNF reporter robust z-score":1.75}
{"gene":"TYK2","TNF reporter robust z-score":-0.08}
{"gene":"TYK2","TNF reporter robust z-score":0.95}
{"gene":"DDIAS","TNF reporter robust z-score":0.04}
{"gene":"DDIAS","TNF reporter robust z-score":0.61}
{"gene":"DDIAS","TNF reporter robust z-score":0.43}
{"gene":"DDIAS","TNF reporter robust z-score":0.58}
{"gene":"KITLG","TNF reporter robust z-score":0.66}
{"gene":"KITLG","TNF reporter robust z-score":-0.59}
{"gene":"KITLG","TNF reporter robust z-score":-0.41}
{"gene":"KITLG","TNF reporter robust z-score":0.52}
{"gene":"BLTP3B","TNF reporter robust z-score":1.43}
{"gene":"BLTP3B","TNF reporter robust z-score":-0.24}
{"gene":"BLTP3B","TNF reporter robust z-score":-0.46}
{"gene":"BLTP3B","TNF reporter robust z-score":-0.7}
{"gene":"GOLT1B","TNF reporter robust z-score":0.56}
{"gene":"GOLT1B","TNF reporter robust z-score":1.27}
{"gene":"GOLT1B","TNF reporter robust z-score":0.19}
{"gene":"GOLT1B","TNF reporter robust z-score":0.93}
{"gene":"H1-1","TNF reporter robust z-score":0.72}
{"gene":"H1-1","TNF reporter robust z-score":0.56}
{"gene":"H1-1","TNF reporter robust z-score":0.31}
{"gene":"H1-1","TNF reporter robust z-score":0.86}
{"gene":"AGPAT3","TNF reporter robust z-score":0.49}
{"gene":"AGPAT3","TNF reporter robust z-score":1.72}
{"gene":"AGPAT3","TNF reporter robust z-score":0.58}
{"gene":"AGPAT3","TNF reporter robust z-score":0.5}
{"gene":"TDRD9","TNF reporter robust z-score":-0.49}
{"gene":"TDRD9","TNF reporter robust z-score":0.17}
{"gene":"TDRD9","TNF reporter robust z-score":-0.05}
{"gene":"TDRD9","TNF reporter robust z-score":-0.04}
{"gene":"SHC1","TNF reporter robust z-score":-0.67}
{"gene":"SHC1","TNF reporter robust z-score":0.95}
{"gene":"SHC1","TNF reporter robust z-score":-0.6}
{"gene":"NBL1","TNF reporter robust z-score":-0.31}
{"gene":"NBL1","TNF reporter robust z-score":-0.22}
{"gene":"NBL1","TNF reporter robust z-score":-0.25}
{"gene":"NBL1","TNF reporter robust z-score":-0.33}
{"gene":"EFHB","TNF reporter robust z-score":-1.25}
{"gene":"EFHB","TNF reporter robust z-score":0.02}
{"gene":"EFHB","TNF reporter robust z-score":0.07}
{"gene":"EFHB","TNF reporter robust z-score":0.25}
{"gene":"MBOAT7","TNF reporter robust z-score":0.31}
{"gene":"MBOAT7","TNF reporter robust z-score":1.67}
{"gene":"MBOAT7","TNF reporter robust z-score":0.77}
{"gene":"MBOAT7","TNF reporter robust z-score":1.4}
